Record: PubChem BioAssay AID1259424 (University of Nebraska Medical Center, 2018)

Purpose: 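Find knockdowns that reproduce the expression shifts seen after KSR1 loss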 (primary screen)
System: human HCT116 colon cancer cells
Reagent: siRNA pool against human genes, 50 nM
Measured: 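Log2 levels of six mRNAs (branched-DNA multiplex), adjusted by two reference genes and the non-targeting median, then scored against the average KSR1 knockdown pattern as Pearson r and euclidean distance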
Direction: mean correlation with KSR1 profile and KSR1 correlation: higher = expression change more like KSR1 knockdown; mean distance from KSR1 profile: higher = expression change less like KSR1 knockdown
This is a random part of about 14,000 deposited reagents. 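Higher correlation or smaller distance means closer resemblance to KSR1 loss; control wells, including KSR1 knockdowns, recur on many plates.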 A reagent listed more than once was tested more than once; the source does not tell the runs apart. Not given: the time to read-out.

| gene | mean correlation with KSR1 profile | mean distance from KSR1 profile | KSR1 correlation, replicate 1 | KSR1 correlation, replicate 2 | KSR1 correlation, replicate 3 |
| --- | --- | --- | --- | --- | --- |
| PFN1P3 (profilin 1 pseudogene 3) | -0.461 | 2.34 | -0.123 | -0.469 | -0.379 |
| CCL28 (C-C motif chemokine ligand 28) | -0.288 | 1.9 | -0.0103 | -0.429 | -0.323 |
| H2BC5 (H2B clustered histone 5) | -0.17 | 2.05 | -0.163 | -0.368 | -0.0134 |
| P2RY2 (purinergic receptor P2Y2) | 0.574 | 2.35 | 0.602 | 0.626 | 0.489 |
| P2RY2 (purinergic receptor P2Y2) | -0.0183 | 2.35 | -0.211 | 0.0523 | 0.107 |
| FFAR2 (free fatty acid receptor 2) | 0.495 | 2.84 | 0.215 | 0.423 | 0.654 |
| PI4K2A (phosphatidylinositol 4-kinase type 2 alpha) | 0.698 | 1.06 | 0.61 | 0.838 | 0.489 |
| DGUOK (deoxyguanosine kinase) | -0.109 | 3.93 | -0.164 | -0.227 | -0.235 |
| TLE6 (TLE family member 6, subcortical maternal complex member) | 0.702 | 2.58 | 0.762 | 0.645 | 0.676 |
| ZNF34 (zinc finger protein 34) | 0.16 | 2.85 | -0.0292 | 0.0342 | 0.29 |
| OLFML3 (olfactomedin like 3) | -0.676 | 2.87 | -0.688 | -0.705 | -0.695 |
| ACP4 (acid phosphatase 4) | 0.21 | 1.59 | -0.0588 | 0.411 | 0.411 |
| INTS6 (integrator complex subunit 6) | 0.136 | 6.11 | 0.142 | 0.064 | 0.0247 |
| ZNF253 (zinc finger protein 253) | -0.548 | 2.27 | -0.55 | -0.592 | -0.664 |
| TIMP4 (TIMP metallopeptidase inhibitor 4) | 0.512 | 1.07 | 0.558 | 0.371 | 0.624 |
| STK3 (serine/threonine kinase 3) | 0.38 | 2.14 | 0.654 | 0.203 | -0.0834 |
| NMUR1 (neuromedin U receptor 1) | 0.711 | 1.41 | 0.676 | 0.712 | 0.679 |
| NT5C (5', 3'-nucleotidase, cytosolic) | -0.0372 | 2.98 | -0.242 | -0.18 | -0.0758 |
| ANLN (anillin, actin binding protein) | -0.0418 | 2.26 | -0.0757 | -0.0459 | -0.0724 |
| IL1RN (interleukin 1 receptor antagonist) | 0.488 | 1.13 | 0.557 | 0.283 | 0.546 |
| DYNLT3 (dynein light chain Tctex-type 3) | -0.577 | 2.47 | -0.426 | -0.711 | -0.377 |
| AOC1 (amine oxidase copper containing 1) | -0.235 | 3.17 | -0.203 | -0.229 | -0.37 |
| LILRA2 (leukocyte immunoglobulin like receptor A2) | -0.298 | 1.93 | -0.343 | -0.155 | -0.296 |
| PIGT (phosphatidylinositol glycan anchor biosynthesis class T) | -0.189 | 3.95 | -0.112 | -0.237 | -0.182 |
| ABCA13 (ATP binding cassette subfamily A member 13) | 0.626 | 1.93 | 0.807 | 0.772 | 0.265 |
| IL17RC (interleukin 17 receptor C) | 0.619 | 1.75 | 0.448 | 0.439 | 0.533 |
| PDZRN3 (PDZ domain containing ring finger 3) | -0.486 | 2.09 | -0.346 | -0.422 | -0.447 |
| TMED1 (transmembrane p24 trafficking protein 1) | -0.367 | 1.37 | 0.108 | -0.0688 | -0.499 |
| MPHOSPH10 (M-phase phosphoprotein 10) | -0.0103 | 2.02 | 0.0464 | 0.0969 | -0.209 |
| LRPPRC (leucine rich pentatricopeptide repeat containing) | 0.418 | 2.61 | 0.52 | 0.265 | 0.411 |
| FRMPD3 (FERM and PDZ domain containing 3) | 0.793 | 1.05 | 0.899 | 0.87 | 0.0765 |
| SUMO1 (small ubiquitin like modifier 1) | -0.255 | 3.25 | -0.372 | -0.0559 | -0.318 |
| AFAP1-AS1 (AFAP1 antisense RNA 1) | 0.288 | 2.4 | 0.152 | 0.0924 | 0.212 |
| RHAG (Rh associated glycoprotein) | -0.669 | 2.22 | -0.558 | -0.653 | -0.541 |
